{
  "source": "the supplement of paper PMC8728848",
  "test_in_all_cases": "glycan array binding signal (z-score within array); higher = stronger binding",
  "settings_in_all_cases": "glycan notation: IUPAC condensed, linker removed",
  "key": {"[1]": {"biological_target": "GlcNAc(b1-3)Gal(b1-4)GlcNAc(b1-3)Gal(b1-4)GlcNAc(b1-3)GalNAc", "method_in_brief": "(§1)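 The Consortium for Functional Glycomics database supplied 3228 glycan arrays, of which those lacking an available protein sequence were dropped. The binding signal, a within-array Z-score, was averaged across arrays of the same protein sequence and across linkers. Negative scores can be read as non-binding.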"}, "[2]": {"biological_target": "GlcNAc(b1-3)Gal(b1-4)GlcNAc(b1-3)GalNAc", "method_in_brief": "as §1"}, "[3]": {"biological_target": "GlcNAc(b1-3)Gal(b1-4)GlcNAc(b1-3)[GlcNAc(b1-3)Gal(b1-4)GlcNAc(b1-3)]GalNAc", "method_in_brief": "as §1"}, "[4]": {"biological_target": "GlcNAc(b1-3)Gal(b1-4)GlcNAc(b1-6)[Gal(b1-3)]GalNAc", "method_in_brief": "as §1"}, "[5]": {"biological_target": "GlcNAc(b1-3)Gal(b1-4)GlcNAc(b1-6)[GlcNAc(b1-3)Gal(b1-3)]GalNAc", "method_in_brief": "as §1"}, "[6]": {"biological_target": "GlcNAc(b1-3)Gal(b1-4)GlcNAc(b1-6)[GlcNAc(b1-3)]Gal(b1-4)GlcNAc", "method_in_brief": "as §1"}, "GlcNAc(b1-3)GalNAc": {"biological_target": "GlcNAc(b1-3)GalNAc", "method_in_brief": "as §1"}, "GlcNAc(b1-3)Man": {"biological_target": "GlcNAc(b1-3)Man", "method_in_brief": "as §1"}, "[7]": {"biological_target": "GlcNAc(b1-3)[GlcNAc(b1-4)][GlcNAc(b1-6)]GlcNAc", "method_in_brief": "as §1"}, "[8]": {"biological_target": "GlcNAc(b1-3)[GlcNAc(b1-6)]Gal(b1-4)GlcNAc", "method_in_brief": "as §1"}, "[9]": {"biological_target": "GlcNAc(b1-3)[GlcNAc(b1-6)]GalNAc", "method_in_brief": "as §1"}, "[10]": {"biological_target": "GlcNAc(b1-4)Gal(b1-4)GlcNAc", "method_in_brief": "as §1"}, "GlcNAc(b1-4)GlcNAc": {"biological_target": "GlcNAc(b1-4)GlcNAc", "method_in_brief": "as §1"}, "[11]": {"biological_target": "GlcNAc(b1-4)GlcNAc(b1-4)GlcNAc", "method_in_brief": "as §1"}, "[12]": {"biological_target": "GlcNAc(b1-4)GlcNAc(b1-4)GlcNAc(b1-4)GlcNAc(b1-4)GlcNAc", "method_in_brief": "as §1"}, "[13]": {"biological_target": "GlcNAc(b1-4)GlcNAc(b1-4)GlcNAc(b1-4)GlcNAc(b1-4)GlcNAc(b1-4)GlcNAc", "method_in_brief": "as §1"}, "[14]": {"biological_target": "GlcNAc(b1-4)[GlcNAc(b1-6)]GalNAc", "method_in_brief": "as §1"}, "[15]": {"biological_target": "GlcNAc(b1-6)Gal(b1-4)GlcNAc", "method_in_brief": "as §1"}, "GlcNAc(b1-6)GalNAc": {"biological_target": "GlcNAc(b1-6)GalNAc", "method_in_brief": "as §1"}, "[16]": {"biological_target": "GlcNAc6S(b1-3)Gal(b1-4)GlcNAc", "method_in_brief": "as §1"}, "Kdn(a2-3)Gal(b1-3)GalNAc": {"biological_target": "Kdn(a2-3)Gal(b1-3)GalNAc", "method_in_brief": "as §1"}, "Kdn(a2-3)Gal(b1-3)GlcNAc": {"biological_target": "Kdn(a2-3)Gal(b1-3)GlcNAc", "method_in_brief": "as §1"}, "Kdn(a2-3)Gal(b1-4)Glc": {"biological_target": "Kdn(a2-3)Gal(b1-4)Glc", "method_in_brief": "as §1"}, "Kdn(a2-3)Gal(b1-4)GlcNAc": {"biological_target": "Kdn(a2-3)Gal(b1-4)GlcNAc", "method_in_brief": "as §1"}, "[17]": {"biological_target": "Kdn(a2-3)Gal(b1-4)[Fuc(a1-3)]GlcNAc", "method_in_brief": "as §1"}, "Kdn(a2-6)Gal(b1-4)GlcNAc": {"biological_target": "Kdn(a2-6)Gal(b1-4)GlcNAc", "method_in_brief": "as §1"}, "[18]": {"biological_target": "Man(a1-2)Man(a1-2)Man(a1-3)Man", "method_in_brief": "as §1"}, "[19]": {"biological_target": "Man(a1-2)Man(a1-2)Man(a1-6)[Man(a1-3)]Man", "method_in_brief": "as §1"}, "Man(a1-2)Man(a1-3)Man": {"biological_target": "Man(a1-2)Man(a1-3)Man", "method_in_brief": "as §1"}, "[20]": {"biological_target": "Man(a1-2)Man(a1-3)[Man(a1-2)Man(a1-6)]Man", "method_in_brief": "as §1"}, "[21]": {"biological_target": "Man(a1-2)Man(a1-3)[Man(a1-2)Man(a1-6)]Man(a1-6)[Man(a1-2)Man(a1-2)Man(a1-3)]Man", "method_in_brief": "as §1"}, "[22]": {"biological_target": "Man(a1-2)Man(a1-3)[Man(a1-2)Man(a1-6)]Man(a1-6)[Man(a1-2)Man(a1-2)Man(a1-3)]Man(b1-4)GlcNAc(b1-4)GlcNAc", "method_in_brief": "as §1"}, "[23]": {"biological_target": "Man(a1-2)Man(a1-3)[Man(a1-6)]Man(a1-6)[Man(a1-2)Man(a1-3)]Man(b1-4)GlcNAc(b1-4)GlcNAc", "method_in_brief": "as §1"}, "[24]": {"biological_target": "Man(a1-2)Man(a1-6)[Man(a1-3)]Man(a1-6)[Man(a1-2)Man(a1-2)Man(a1-3)]Man", "method_in_brief": "as §1"}, "[25]": {"biological_target": "Man(a1-2)Man(a1-6)[Man(a1-3)]Man(a1-6)[Man(a1-2)Man(a1-2)Man(a1-3)]Man(b1-4)GlcNAc(b1-4)GlcNAc", "method_in_brief": "as §1"}, "Man(a1-3)[Man(a1-6)]Man": {"biological_target": "Man(a1-3)[Man(a1-6)]Man", "method_in_brief": "as §1"}, "[26]": {"biological_target": "Man(a1-3)[Man(a1-6)]Man(a1-6)[Man(a1-2)Man(a1-3)]Man(b1-4)GlcNAc(b1-4)GlcNAc", "method_in_brief": "as §1"}},
  "note": "This is one part of the list.",
  "data": [
    {"binder": "EUL D1A (Oryza sativa) (protein) MFGFGHHHNQAPAAPSDPNQIFKIFCRANENYCLTVRDSAVVLAPVNPKDEHQHWFKDMRFSTKVKDGEGMPAFALVNKATGLAVKHSLGQSHPVKLVPFNPEYEDASVLWTESKDVGKGFRCIRMVNNTRLNLDAFHGDKDHGGVRDGTTVVLWEWCKGDNQSWKILPWGPEAHSSSPGAATACTIGGVPVHTVRVFSAAGEDYCLTVRNGTACLAPKNPRDDYQHWIKDMRHSNKIRDEEGYPAFALVNKVTGEAIKHSTGQGHPVKLVPYNPEYQDESVLWTESKDVGKGFRCIRMVNNIYLNFDAFHGDKDHGGIHDGTEIVLWKWCEGDNQRWKILPWILEQKLISEEDLNSAVDHHHHHH", "values": [
      {"measurement": "glycan array binding signal (z-score)", "setting": "[1]", "result": 1.48},
      {"measurement": "glycan array binding signal (z-score)", "setting": "[2]", "result": 0.573},
      {"measurement": "glycan array binding signal (z-score)", "setting": "[3]", "result": -0.477},
      {"measurement": "glycan array binding signal (z-score)", "setting": "[4]", "result": 0.953},
      {"measurement": "glycan array binding signal (z-score)", "setting": "[5]", "result": -0.71},
      {"measurement": "glycan array binding signal (z-score)", "setting": "[6]", "result": -1.03},
      {"measurement": "glycan array binding signal (z-score)", "setting": "GlcNAc(b1-3)GalNAc", "result": 0.155},
      {"measurement": "glycan array binding signal (z-score)", "setting": "GlcNAc(b1-3)Man", "result": -0.254},
      {"measurement": "glycan array binding signal (z-score)", "setting": "[7]", "result": -0.383},
      {"measurement": "glycan array binding signal (z-score)", "setting": "[8]", "result": -0.177},
      {"measurement": "glycan array binding signal (z-score)", "setting": "[9]", "result": 0.207},
      {"measurement": "glycan array binding signal (z-score)", "setting": "[10]", "result": -1.13},
      {"measurement": "glycan array binding signal (z-score)", "setting": "GlcNAc(b1-4)GlcNAc", "result": -0.192},
      {"measurement": "glycan array binding signal (z-score)", "setting": "[11]", "result": -2.04},
      {"measurement": "glycan array binding signal (z-score)", "setting": "[12]", "result": 0.586},
      {"measurement": "glycan array binding signal (z-score)", "setting": "[13]", "result": -0.762},
      {"measurement": "glycan array binding signal (z-score)", "setting": "[14]", "result": -0.652},
      {"measurement": "glycan array binding signal (z-score)", "setting": "[15]", "result": -1.58},
      {"measurement": "glycan array binding signal (z-score)", "setting": "GlcNAc(b1-6)GalNAc", "result": 0.016},
      {"measurement": "glycan array binding signal (z-score)", "setting": "[16]", "result": 1.24},
      {"measurement": "glycan array binding signal (z-score)", "setting": "Kdn(a2-3)Gal(b1-3)GalNAc", "result": -0.052},
      {"measurement": "glycan array binding signal (z-score)", "setting": "Kdn(a2-3)Gal(b1-3)GlcNAc", "result": 0.784},
      {"measurement": "glycan array binding signal (z-score)", "setting": "Kdn(a2-3)Gal(b1-4)Glc", "result": -0.495},
      {"measurement": "glycan array binding signal (z-score)", "setting": "Kdn(a2-3)Gal(b1-4)GlcNAc", "result": -0.412},
      {"measurement": "glycan array binding signal (z-score)", "setting": "[17]", "result": -1.54},
      {"measurement": "glycan array binding signal (z-score)", "setting": "Kdn(a2-6)Gal(b1-4)GlcNAc", "result": -0.651},
      {"measurement": "glycan array binding signal (z-score)", "setting": "[18]", "result": -0.835},
      {"measurement": "glycan array binding signal (z-score)", "setting": "[19]", "result": -1.18},
      {"measurement": "glycan array binding signal (z-score)", "setting": "Man(a1-2)Man(a1-3)Man", "result": -0.772},
      {"measurement": "glycan array binding signal (z-score)", "setting": "[20]", "result": -0.434},
      {"measurement": "glycan array binding signal (z-score)", "setting": "[21]", "result": 1.31},
      {"measurement": "glycan array binding signal (z-score)", "setting": "[22]", "result": -0.958},
      {"measurement": "glycan array binding signal (z-score)", "setting": "[23]", "result": 0.032},
      {"measurement": "glycan array binding signal (z-score)", "setting": "[24]", "result": 2.83},
      {"measurement": "glycan array binding signal (z-score)", "setting": "[25]", "result": -0.952},
      {"measurement": "glycan array binding signal (z-score)", "setting": "Man(a1-3)[Man(a1-6)]Man", "result": -0.788},
      {"measurement": "glycan array binding signal (z-score)", "setting": "[26]", "result": -0.98}
    ]}
  ]
}
